These are yes or no findings as the source states them, for the method shown. Some binding calls cover weakened binding; strength is not graded here.
Target: tropomyosin-related kinase receptor B (TrkB) (UniProt Q16620)
Assay: X-ray crystallography of the ternary complex

Chains of the proteins cited; added tags and fusions are not shown. Residues count along the entry.
UniProt Q16620, residues 32-430: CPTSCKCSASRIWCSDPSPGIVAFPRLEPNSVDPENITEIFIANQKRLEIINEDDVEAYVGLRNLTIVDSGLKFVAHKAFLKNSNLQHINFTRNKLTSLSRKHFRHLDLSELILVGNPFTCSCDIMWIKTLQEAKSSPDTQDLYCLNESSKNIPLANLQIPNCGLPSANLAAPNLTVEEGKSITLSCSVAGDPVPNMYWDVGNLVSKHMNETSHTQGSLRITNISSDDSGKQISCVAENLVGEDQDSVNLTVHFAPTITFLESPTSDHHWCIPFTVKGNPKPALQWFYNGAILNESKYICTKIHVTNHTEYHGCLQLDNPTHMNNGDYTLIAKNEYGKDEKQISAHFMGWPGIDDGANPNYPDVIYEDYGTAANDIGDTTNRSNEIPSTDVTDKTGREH

B1: MbNb22^cYgjkE2 (designed binder)
chain: QVQLVESGGGLVYKEETQSGLNNYARVVEKGQYDSLEIPAQVAASWESGRDDAAVFGFIDKEQLDKYVANGGKRSDWTVKFAENRSQDGTLLGYSLLQESVDQASYMYSDNHYLAEMATILGKPEEAKRYRQLAQQLADYINTCMFDPTTQFYYDVRIEDKPLANGCAGKPIVERGKGPEGWSPLFNGAATQANADAVVKVMLDPKEFNTFVPLGTAALTNPAFGADIYWRGRVWVDQFWFGLKGMERYGYRDDALKLADTFFRHAKGLTADGPIQENYNPLTGAQQGAPNFSWSAAHLYMLYNDFFRKQASGGGSGGGGSGGGGSGNADNYKNVINRTGAPQYMKDYDYDDHQRFNPFFDLGAWHGHLLPDGPNTMGGFPGVALLTEEYINFMASNFDRLTVWQDGKKVDFTLEAYSIPGALVQKLTAKDVQVEMTLRFATPRTSLLETKITSNKPLDLVWDGELLEKLEAKEGKPLSDKTIAGEYPDYQRKISATRDGLKVTFGKVRATWDLLTSGESEYQVHKSLPVQTEINGNRFTSKAHINGSTTLYTTYSHLLTAQEVSKEQMQIRDILARPAFYLTASQQRWEEYLKKGLTNPDATPEQTRVAVKAIETLNGNWRSPGGAVKFNTVTPSVTGRWFSGNQTWPWDTWKQAFAMAHFNPDIAKENIRAVFSWQIQPGDSVRPQDVGFVPDLIAWNLSPERGGDGGNWNERNTKPSLAAWSVMEVYNVTQDKTWVAEMYPKLVAYHDWWLRNRDHNGNGVPEYGATRDKAHNTESGEMLFTVKKDSLRLSCTASGFTFDNYAIGWFRQAPGKEREGVSCISRSGRSTYYADSVKGRVTIAKEKNTVLLQMNDLQPDDTAVYYCAAGTVTVVGSACPSTARRLWGRGTQVTVSSHHHHHHEPEA
binding: binds

Source: patent US20210206880A1
